Data on 17 molecules can be found in PubChem BioAssay AID256 (DTP/NCI, 2004).

In the assay the test system is CD2F1 mice, L1210 leukemia ip, survival T/C. Kind of assay: NCI In Vivo Anticancer Drug Screen. Data for tumor model L1210 Leukemia (intraperitoneal) in CD2F1 (CDF1) mice. To be noted: higher T/C = longer survival. The method, boiled down: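 Transplantable tumor in mice; compound-treated vs vehicle-treated groups. Read-out = treated/control ratio of the measured endpoint.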

Setting [1] is: T/C endpoint: mean survival time, dose: 150.0 mg/kg/injection, schedule: Q01DX001 (ip), vehicle: saline.
Setting [2] is: T/C endpoint: mean survival time, dose: 300.0 mg/kg/injection, schedule: Q01DX001 (ip), vehicle: saline.
Setting [3] is: T/C endpoint: mean survival time, dose: 200.0 mg/kg/injection, schedule: Q04DX003 (ip), vehicle: distilled water + Tween-80.

The list is a part of this screen's results and no random one: it gathers tests that were run many times, whatever their T/C, doses with no T/C, and many T/C values between a quarter and a half above the control. Further doses and runs are listed elsewhere. T/C gives the treated animals as a percentage of the vehicle group. Some entries give survivors of the animals treated and no T/C: the source holds a T/C of zero for them, seemingly a mark for toxic or unscored doses. Some survivor counts are full or nearly so, which does not show that the dose was tolerated: survival well below the control is almost never listed, so the zero probably covers shortened survival too. Counts of survivors are from the toxicity check (mostly the fifth day) where no day follows; animals may have died later. Schedule codes are those of the source, taken here to give the interval after Q, in days (D) or hours (H), and the number of doses after X. Some entries hold several experiments; the values are given in rising order. For survival time, this PubChem deposit counts one and a half times the control or more as active, and values a quarter to a half above the control carry no call in these data; other NCI protocols may use other cut-offs. Counts like (3×) say how often a value occurs here. Some T/C values are followed by the survivors on the day toxicity was checked, most often the fifth; without a count, all were alive then.

Take `CNNC1CCC2C3CCc4cc(O)ccc4C3CCC12C` (stereo not drawn): the survivor count (T/C endpoint: mean survival time, dose: 100.0 mg/kg/injection, schedule: Q01DX009 (ip), vehicle: Klucel (hydroxypropylcellulose) (HPC)) is 0 of 3; the survivor count (T/C endpoint: mean survival time, dose: 200.0 mg/kg/injection, schedule: Q01DX009 (ip), vehicle: Klucel (hydroxypropylcellulose) (HPC)) is reported as 0 of 3; the survivor count (T/C endpoint: mean survival time, dose: 400.0 mg/kg/injection, schedule: Q01DX009 (ip), vehicle: Klucel (hydroxypropylcellulose) (HPC)) is on record as 0 of 3.

For `CCCCN1CCCCC1C(=O)Nc1c(C)cccc1C` (stereo not drawn), the survivor count (T/C endpoint: mean survival time, dose: 75.0 mg/kg/injection, schedule: Q01DX001 (ip), vehicle: saline) is 2 of 6; the survivor count under setting [1] was 0 of 6; the survivor count under setting [2] is recorded as 0 of 6.

As for `COc1ccc(NC(=O)Oc2ccccc2C(C)C)cc1`, the survivor count (T/C endpoint: mean survival time, dose: 200.0 mg/kg/injection, schedule: Q04DX002 (ip), vehicle: saline with Tween-80) is recorded as 3 of 3.

`COc1ccc2c(c1O)CNCC2c1ccc(O)c(C)c1` (stereo not drawn): the survivor count is, setting by setting: under setting [1], 3 of 6; under setting [2], 1 of 6.

Take `[Cl][Pt+2][Cl].[NH-]c1cccc(I)c1.[NH-]c1cccc(I)c1`: the survivor count under setting [3] was 5 of 6.

As to `c1coc(CNc2ncnc3c2ncn3Cc2ccco2)c1`, the survivor count by setting is: (T/C endpoint: mean survival time, dose: 50.0 mg/kg/injection, schedule: Q01DX005 (ip), vehicle: other) 5 of 5; (T/C endpoint: mean survival time, dose: 100.0 mg/kg/injection, schedule: Q01DX005 (ip), vehicle: other) 4 of 5.

`CCS/C(SC)=C(/c1ccccc1)[P+](c1ccccc1)(c1ccccc1)c1ccccc1`: the survivor count is, setting by setting: (T/C endpoint: median survival time, dose: 6.0 mg/kg/injection, schedule: Q01DX009 (ip), vehicle: Klucel (hydroxypropylcellulose) (HPC)) 3 of 6; (T/C endpoint: median survival time, dose: 12.0 mg/kg/injection, schedule: Q01DX009 (ip), vehicle: Klucel (hydroxypropylcellulose) (HPC)) 0 of 6; (T/C endpoint: median survival time, dose: 24.0 mg/kg/injection, schedule: Q01DX009 (ip), vehicle: Klucel (hydroxypropylcellulose) (HPC)) 0 of 6.

For `CN(Cc1ccc2nc(N)nc(N)c2n1)c1ccc(C(=O)NC(CCC(=O)O)C(=O)O)cc1` (stereo not drawn), the T/C is, setting by setting: (T/C endpoint: mean survival time, dose: 0.03 mg/kg/injection, schedule: Q01DX005 (ip), vehicle: sodium bicarbonate) 126 % of control; (T/C endpoint: mean survival time, dose: 0.06 mg/kg/injection, schedule: Q01DX005 (ip), vehicle: sodium bicarbonate) 138 % of control; (T/C endpoint: mean survival time, dose: 0.25 mg/kg/injection, schedule: Q01DX005 (ip), vehicle: sodium bicarbonate) 148 % of control; (T/C endpoint: mean survival time, dose: 250.0 micrograms/kg/injection, schedule: Q01DX005 (ip), vehicle: sodium bicarbonate) 148 % of control. The survivor count was 6 of 6 (T/C endpoint: mean survival time, dose: 0.5 mg/kg/injection, schedule: Q01DX005 (ip), vehicle: sodium bicarbonate); 3 of 6 and 6 of 6 (T/C endpoint: mean survival time, dose: 1.0 mg/kg/injection, schedule: Q01DX005 (ip), vehicle: sodium bicarbonate); 3 of 6 (T/C endpoint: mean survival time, dose: 2.0 mg/kg/injection, schedule: Q01DX005 (ip), vehicle: sodium bicarbonate); 4 of 6 (T/C endpoint: mean survival time, dose: 4.0 mg/kg/injection, schedule: Q01DX005 (ip), vehicle: sodium bicarbonate); 6 of 6 (T/C endpoint: mean survival time, dose: 8.0 mg/kg/injection, schedule: Q01DX005 (ip), vehicle: sodium bicarbonate); 5 of 6 (T/C endpoint: mean survival time, dose: 16.0 mg/kg/injection, schedule: Q01DX005 (ip), vehicle: sodium bicarbonate). Also, the survivor count (T/C endpoint: mean survival time, dose: 500.0 micrograms/kg/injection, schedule: Q01DX005 (ip), vehicle: sodium bicarbonate) is recorded as 5 of 6.

Consider `CC(C)(C)N1CCOCC1`, for which the survivor count runs as follows: (T/C endpoint: mean survival time, dose: 200.0 mg/kg/injection, schedule: Q04DX003 (ip), vehicle: saline with Tween-80) 1 of 6; (T/C endpoint: mean survival time, dose: 400.0 mg/kg/injection, schedule: Q04DX003 (ip), vehicle: saline with Tween-80) 0 of 6.

Consider `CCCN(CCC)N=Nc1c(C(=O)OC)n[nH]c1C`, for which the survivor count runs as follows: (T/C endpoint: mean survival time, dose: 200.0 mg/kg/injection, schedule: Q01DX009 (ip), vehicle: saline with Tween-80) 3 of 6; (T/C endpoint: mean survival time, dose: 266.0 mg/kg/injection, schedule: Q01DX009 (ip), vehicle: saline with Tween-80) 6 of 6; (T/C endpoint: mean survival time, dose: 400.0 mg/kg/injection, schedule: Q01DX009 (ip), vehicle: saline with Tween-80) 0 of 6 and 1 of 6.

For `CCOC1NC(=O)Oc2ccccc21` (stereo not drawn), the survivor count (T/C endpoint: median survival time, dose: 400.0 mg/kg/injection, schedule: Q01DX005 (ip), vehicle: Klucel (hydroxypropylcellulose) (HPC)) was 0 of 6 and the survivor count (T/C endpoint: median survival time, dose: 800.0 mg/kg/injection, schedule: Q01DX005 (ip), vehicle: Klucel (hydroxypropylcellulose) (HPC)) is reported as 0 of 6.

`O=C(O)CC(=O)O.[NH-]CCC1CCCC[N-]1.[Pt+2]` (stereo not drawn): the T/C by setting is: (T/C endpoint: mean survival time, dose: 100.0 mg/kg/injection, schedule: Q04DX003 (ip), vehicle: distilled water + Tween-80) 127 % of control; (T/C endpoint: mean survival time, dose: 100.0 mg/kg/injection, schedule: Q04DX003 (ip), vehicle: water) 138 % of control. Moreover, the survivor count by setting is: under setting [3], 2 of 6; (T/C endpoint: mean survival time, dose: 200.0 mg/kg/injection, schedule: Q04DX003 (ip), vehicle: water) 4 of 6; (T/C endpoint: mean survival time, dose: 400.0 mg/kg/injection, schedule: Q04DX003 (ip), vehicle: water) 0 of 6.

As to `NC(Cc1cc(I)c(Oc2cc(I)c(O)c(I)c2)c(I)c1)C(=O)O` (stereo not drawn), the survivor count by setting is: (T/C endpoint: mean survival time, dose: 0.5 mg/kg/injection, schedule: Q01DX009 (ip), vehicle: saline) 6 of 6; (T/C endpoint: mean survival time, dose: 16.0 mg/kg/injection, schedule: Q01DX009 (ip), vehicle: saline) 6 of 6; (T/C endpoint: mean survival time, dose: 32.0 mg/kg/injection, schedule: Q01DX009 (ip), vehicle: saline) 6 of 6; (T/C endpoint: mean survival time, dose: 64.0 mg/kg/injection, schedule: Q01DX009 (ip), vehicle: saline) 6 of 6; (T/C endpoint: mean survival time, dose: 128.0 mg/kg/injection, schedule: Q01DX009 (ip), vehicle: saline) 6 of 6. The T/C is 89 and 92 % of control (T/C endpoint: mean survival time, dose: 4.0 mg/kg/injection, schedule: Q01DX009 (ip), vehicle: saline, evaluated on day 5); 87 and 98 % of control (T/C endpoint: mean survival time, dose: 4.0 mg/kg/injection, schedule: Q01DX009 (ip), vehicle: saline, evaluated on day 30); 80, 87 (2×), 88 % of control (T/C endpoint: median survival time, dose: 0.63 mg/kg/injection, schedule: Q01DX009 (ip), vehicle: saline, evaluated on day 5); 85, 92, 93 % of control (T/C endpoint: median survival time, dose: 0.63 mg/kg/injection, schedule: Q01DX009 (ip), vehicle: saline, evaluated on day 6); 79, 85, 86, 101 % of control (T/C endpoint: median survival time, dose: 2.5 mg/kg/injection, schedule: Q01DX009 (ip), vehicle: saline, evaluated on day 5); 85, 91, 94 % of control (T/C endpoint: median survival time, dose: 2.5 mg/kg/injection, schedule: Q01DX009 (ip), vehicle: saline, evaluated on day 6). The T/C was 70 [4 of 5 alive], 84, 96, 105 % of control (T/C endpoint: median survival time, dose: 10.0 mg/kg/injection, schedule: Q01DX009 (ip), vehicle: saline, evaluated on day 5); 85, 89, 92 % of control (T/C endpoint: median survival time, dose: 10.0 mg/kg/injection, schedule: Q01DX009 (ip), vehicle: saline, evaluated on day 6); 76, 80, 86, 90 % of control (T/C endpoint: median survival time, dose: 40.0 mg/kg/injection, schedule: Q01DX009 (ip), vehicle: saline, evaluated on day 5); 86, 91, 92 % of control (T/C endpoint: median survival time, dose: 40.0 mg/kg/injection, schedule: Q01DX009 (ip), vehicle: saline, evaluated on day 6).

On to `O=C(N/N=C(/C(=N/NC(=O)c1ccccc1)c1ccccc1)c1ccccc1)c1ccccc1`, for which the survivor count (T/C endpoint: mean survival time, dose: 100.0 mg/kg/injection, schedule: Q04DX003 (ip), vehicle: saline with Tween-80) was 6 of 6.

`CC1=CC2c3cccc4[nH]cc(c34)CC2N(C)C1` (stereo not drawn): under “T/C endpoint: median survival time, dose: 40.0 mg/kg/injection, schedule: Q01DX009 (ip), vehicle: suspension in saline”, the survivor count is recorded as 2 of 6.

Turning to `CN(C)CCNc1ccc(CO)c2sc3ccc(O)cc3c(=O)c12`, the T/C by setting is: (T/C endpoint: median survival time, dose: 25.0 mg/kg/injection, schedule: Q01DX005 (ip), vehicle: saline with Tween-80) 147 % of control; (T/C endpoint: median survival time, dose: 100.0 mg/kg/injection, schedule: Q01DX005 (ip), vehicle: saline with Tween-80) 135 % of control.

In the case of `CCCCCCC(O)C[N+](=O)[O-]` (stereo not drawn), the survivor count (T/C endpoint: mean survival time, dose: 100.0 mg/kg/injection, schedule: Q01DX009 (ip), vehicle: saline with Tween-80) is listed as 3 of 6.
